The experiment in a line: qHTS Assay for Lipid Storage Modulators in Drosophila S3 Cells.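 As to cell number change: cells counted by Cell Tracker Red CMTPX staining in the red channel.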 As to conditions: BODIPY lipid droplet fluorescence, 18-24 h; for cell number change: measured here: cell count max response, cells fed with added oleic acid. A digest of the protocol:
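Laser-scanning cytometry quantifies lipid droplet accumulation (500–530 nm total intensity; droplet/cell object ratio) in oleic acid-fed (400 uM added) Drosophila S3 cells treated with a concentration series. 20 uM Triacsin C defined 100% inhibition.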
Background: In qHTS, concentration-response curves come from the screen itself.

The mark [1] stands for this setting: measured here: cell number channel AC50, cells fed with added oleic acid.
[2] abbreviates: measured here: lipid fluorescence (Fed channel) AC50, cells fed with added oleic acid.

Usually AC50 stands for the midpoint of the concentration-response curve, whichever way the signal moves.

This is one part of the list. These are further read-outs of the screen, such as a control signal, another cell line or another target. No call is given for them. The list favours compounds with an active or inconclusive main result. The note in brackets gives the kind of curve behind each potency; many fits are weak.

For the molecule `COc1ccc(Cn2c(SCC(=O)NCc3ccco3)nc3ccsc3c2=O)cc1`, the cell number change came out at 26.6%. For the same molecule, the AC50 under setting [1] was 0.731 µM [rising, full curve, poor fit]. Besides, the AC50 under setting [2] is 1.3 µM [rising, full curve].

Take `C=CCn1c(SCC#N)nc2ccccc2c1=O`: the cell number change is -20.5%. Further, the AC50 under setting [2] is 29.1 µM [rising, single point].

As to `Cc1ccc(C(c2c(C)[nH][nH]c2=O)c2c(C)[nH][nH]c2=O)cc1[N+](=O)[O-]`, the cell number change came to 2.96%. In addition, the AC50 under setting [2] was 0.366 µM [falling, single point].

With `Cc1cccc(NS(=O)(=O)c2ccc(C)c(C(=O)NCCCN3CCOCC3)c2)c1`, the cell number change is 1.39%. Further, under setting [2], the AC50 is 6.51 µM [rising, single point].

`O=C(CSc1n[nH]c(-c2ccccc2Br)n1)NCCN1C(=O)CSC1=O`: the cell number change was -36.9%. Further, the AC50 under setting [1] is 11.6 µM [falling, partial curve]. In addition, the AC50 under setting [2] was 16.4 µM [falling, partial curve].

As for `CC(C)CC1C(C#N)=C(N)OC2=C1C(=O)CC(c1ccccc1)C2` (configuration not stated), the AC50 under setting [1] is 0.411 µM [falling, full curve, poor fit] and the AC50 under setting [2] is 0.00517 µM [falling, full curve].

Turning to `CCCOc1ccc(C(=O)CCN2CCCCC2)cc1`, the cell number change is -32.7%. The AC50 under setting [1] is 13 µM [falling, partial curve]. The AC50 under setting [2] is 14.6 µM [falling, single point].

For the molecule `O=C(COC(=O)c1ccccc1F)Nc1ccc2c(c1)OCCO2`, the cell number change was -5.22%.

`N#Cc1cnc(N)c(Br)c1`: the cell number change is 6.72%. For the same molecule, the AC50 under setting [2] was 0.00461 µM [falling, full curve, poor fit].

In the case of `CC1CN(c2ccc(NS(=O)(=O)c3ccccc3)cc2C(=O)O)CC(C)O1` (configuration not stated), the AC50 under setting [2] is 0.731 µM [rising, full curve, poor fit].

For the molecule `Cc1ccc(-n2c(=O)c3sccc3n(CC(=O)NCc3ccco3)c2=O)cc1`, the cell number change turned out to be 66.4%. Also, the AC50 under setting [1] was 16.4 µM [rising, partial curve].

Turning to `Cc1ccccc1CN(C)Cc1cc(=O)oc2c(C)c(C)ccc12`, the cell number change was 6.72%.

Take `O=C(Cn1nc(-c2ccc(Cl)cc2)ccc1=O)NCCN1CCOCC1`: the cell number change was 2.28%. Further, the AC50 under setting [2] was 23.1 µM [falling, single point].

With `COc1cccc(NC(=O)c2cnc(SC)nc2)c1`, the cell number change is -17.8%. For the same molecule, under setting [2], the AC50 is 13 µM [falling, partial curve].

In the case of `O=C(COc1ccc2ccc(=O)oc2c1)Nc1ccc(N2CCCCC2)cc1`, the cell number change was 17.2%. Besides, the AC50 under setting [1] was 0.366 µM [falling, single point].

For the molecule `Cc1ccc(NC(=O)NNC(=O)c2snnc2C)cc1`, the cell number change is -24.3%. Moreover, the AC50 under setting [1] is 2.91 µM [rising, single point]. For the same molecule, the AC50 under setting [2] is 6.51 µM [rising, single point].

For `CCn1c(C(=O)N2CCC(C(=O)N3CCN(c4ccccn4)CC3)CC2)cc2sccc21`, the AC50 was 2.06 µM [rising, partial curve, poor fit] under setting [1] and 6.51 µM [rising, single point] under setting [2].

As to `CCOc1ccccc1NC(=O)C(NCCc1ccc(OC)cc1)c1ccccc1` (configuration not stated), the cell number change turned out to be 24.9%.

In the case of `FC(F)(F)C1=CC(c2ccc(Br)cc2)=NCCN1`, the cell number change is -29.9%. Also, the AC50 under setting [1] was 3.26 µM [falling, full curve, poor fit].

For the molecule `CC(=C/c1ccc(C(C)C)cc1)/C=N/NC(=O)Cn1nc(C)cc1C`, the cell number change is -22.6%. For the same molecule, the AC50 under setting [2] is 32.6 µM [falling, single point].

With `Cc1nnc(N/N=C/c2ccc(Br)cc2)n1N`, the cell number change is -2.92%. Under setting [2], the AC50 was 20.6 µM [falling, single point].

In the case of `O=C1NC(=O)c2cc(Oc3ccc([N+](=O)[O-])cc3)ccc21`, the cell number change came to 2.75%. The AC50 under setting [2] is 6.51 µM [rising, single point].

`O=C(c1ccccc1Cc1ccccc1)N1CCN(S(=O)(=O)c2ccccc2[N+](=O)[O-])CC1`: the cell number change is -34.4%. Moreover, the AC50 under setting [1] is 29.1 µM [falling, single point]. For the same molecule, the AC50 under setting [2] was 23.1 µM [falling, single point].

With `CCCCc1oc2c(c(=O)c1C)C(=O)CC(c1ccccc1)C2` (configuration not stated), the AC50 is, setting by setting: under setting [1], 1.16 µM [rising, full curve]; under setting [2], 1.46 µM [rising, full curve].

Consider `COc1ccc(N(CC(=O)NCCSCc2ccc(Cl)cc2)S(C)(=O)=O)cc1Cl`, for which the cell number change was -49.9%. Also, the AC50 under setting [1] was 18.4 µM [falling, partial curve]. Besides, the AC50 under setting [2] was 29.1 µM [falling, single point].

Turning to `NC(=O)Nc1ccccc1C(=O)N1CCC(O)(c2ccc(Cl)cc2)CC1`, the cell number change was -10.8%. The AC50 under setting [2] is 6.51 µM [falling, single point].

Regarding `COC(=O)c1cc(N2CCNCC2)nc2ccccc12`, the cell number change is 5.87%.

On to `Cc1cccc(NC(=O)COc2nsnc2N2CCOCC2)c1`, for which the cell number change was 31%. Further, the AC50 under setting [1] was 7.31 µM [rising, partial curve].

In the case of `O=C(Nc1cc(=O)[nH]c2ncnn12)c1ccccc1Cl`, the cell number change turned out to be 4.61%. Also, under setting [2], the AC50 is 0.00517 µM [rising, full curve].

For `O=C(NCCNC(=O)c1ccc(Cl)cc1Cl)c1cnccn1`, the cell number change was -34.2%. For the same molecule, the AC50 under setting [1] was 29.1 µM [falling, single point]. Also, the AC50 under setting [2] is 35.5 µM [falling, single point].

On to `COc1ccccc1NC(=O)CN1CCN(CC(=O)Nc2ccc3c(c2)OCO3)CC1`, for which the cell number change was -15.9%.

Turning to `O=C(/C=C/c1ccc(F)cc1)NC(=S)N1CCCCC1c1cccnc1` (configuration not stated), the cell number change was 11.2%. The AC50 under setting [2] was 0.058 µM [rising, full curve, poor fit].

As to `CCOC(=O)C1CCN(C(=O)COC(=O)COc2ccc(Cl)cc2)CC1`, the cell number change worked out at 70.6%. Also, the AC50 under setting [1] is 1.64 µM [rising, full curve].

Regarding `Cc1ccc2c(c1)-c1cc(C)nn1C(c1ccc3c(c1)OCO3)N2` (configuration not stated), the AC50 was 0.731 µM [rising, single point] under setting [1] and 1.46 µM [rising, partial curve] under setting [2].

As to `Cc1ccc(C(=O)NC(=S)Nc2cccc(NC(=O)c3ccccc3Cl)c2)cc1[N+](=O)[O-]`, the cell number change is -9.84%. Also, under setting [1], the AC50 was 6.51 µM [falling, single point]. Further, the AC50 under setting [2] is 2.91 µM [falling, full curve].

`CC1=CC(=NOC(=O)c2cccc([N+](=O)[O-])c2)C=C(C)C1=O`: the cell number change stood at 17%. For the same molecule, the AC50 under setting [1] was 0.164 µM [falling, full curve]. In addition, the AC50 under setting [2] was 1.64 µM [falling, partial curve].

For `COc1ccc(OC)c(Nc2nc(N)c([N+](=O)[O-])c(NC3CCCCC3)n2)c1`, the cell number change worked out at 4.5%. Moreover, the half-maximal activity concentration (AC50) under setting [2] is 6.51 µM [falling, partial curve, poor fit].

As to `CC1(C)CC(=O)C2=C(C1)N(c1ccc(F)cc1)C(=O)CC2c1ccccc1` (configuration not stated), the AC50 under setting [2] was 29.1 µM [rising, single point].

Take `CC(=O)c1cccc(Nc2ncnc3ccc(Br)cc23)c1`: the cell number change was -20.2%.

Consider `COc1cc(SC)ccc1C(=O)NCCNC(=O)c1nonc1N`, for which the cell number change is -24.4%.

For the molecule `Cc1ccccc1NC(=S)Nc1ccccn1`, the cell number change was found to be 0.179%. Moreover, the AC50 under setting [2] was 0.116 µM [rising, full curve, poor fit].

On to `CC(Oc1ccccc1)C(=O)N1CCc2ccccc2C1` (configuration not stated), for which the cell number change was determined as 4.76%.

Take `Cc1ccn2cc(C(=O)Nc3ccccc3N3CCOCC3)nc2c1`: the cell number change was -3.19%. The AC50 under setting [2] was 3.26 µM [rising, partial curve].

As for `COc1ccc(C(=O)NC(=S)NCc2ccco2)cc1OC`, the cell number change is 52.4%. Besides, the AC50 under setting [1] was 29.1 µM [rising, single point].

With `O=C(NCCS(=O)(=O)N1CCN(c2ccccc2)CC1)c1cccs1`, the cell number change was -17.9%. The AC50 under setting [2] was 4.11 µM [falling, full curve].

Regarding `CC(=O)N1CCN=C1SCc1cccc(Cl)c1`, the cell number change amounted to 10.8%. For the same molecule, the AC50 under setting [1] was 0.517 µM [rising, single point].

For `C=CCNC(=S)N1CCN(CCN=CC2=C(O)CC(c3ccc(Cl)cc3)CC2=O)CC1` (configuration not stated), the AC50 under setting [2] was 0.58 µM [rising, single point].

`CS(=O)(=O)N(CCc1ccccc1)CC(=O)N1CCN(Cc2ccc3c(c2)OCO3)CC1`: the cell number change is -25.5%.

For `NS(=O)(=O)c1ccc(CCNC(=O)c2ccc3c(c2)OCO3)cc1`, under setting [2], the AC50 is 20.6 µM [falling, single point].

In the case of `Nc1c(C(=O)Nc2ccccc2)c2nc3ccccc3nc2n1-c1ccc(O)cc1`, the cell number change was -33.2%. The AC50 under setting [1] is 29.1 µM [falling, partial curve, poor fit].

As to `COc1c2ccoc2nc2c(OC)c(OCC(O)C(C)(C)O)ccc12` (configuration not stated), the cell number change stood at 179%. The AC50 under setting [2] is 29.1 µM [rising, single point].

In the case of `COc1cc(C(CC(=O)Nc2cc(C)ccn2)N2Cc3ccccc3C2=O)cc(OC)c1OC` (configuration not stated), the cell number change was -7.8%. Moreover, the AC50 under setting [2] was 5.8 µM [rising, single point].

`CCCCN(C(=O)c1ccc(OC(F)(F)F)cc1)c1c(N)n(CCC)c(=O)[nH]c1=O`: the cell number change is -53.4%. Besides, under setting [2], the AC50 was 18.4 µM [falling, single point].

With `NC(=O)c1ccc(NC(=O)CCc2nc3ccccc3s2)cc1`, the cell number change is 40.5%. Moreover, under setting [1], the AC50 is 29.1 µM [rising, single point]. Also, the AC50 under setting [2] is 0.461 µM [rising, single point].

With `O=C(Nc1nc2ccccc2[nH]1)c1ccc(S(=O)(=O)N2CCOCC2)cc1`, the cell number change was determined as 94.3%. In addition, under setting [1], the AC50 was 29.1 µM [rising, single point]. For the same molecule, under setting [2], the AC50 is 29.1 µM [rising, single point].

As for `CSCCC(NC(=O)c1cccc(C)c1)C(=O)OCC(=O)Nc1c(C)nn(-c2ccccc2)c1C` (configuration not stated), the cell number change was determined as 3.94%. The AC50 under setting [2] is 6.51 µM [falling, single point].

With `O=C1c2ccccc2NC(c2ccc(-c3ccccc3F)o2)N1O` (configuration not stated), the cell number change is -40.9%. Also, the AC50 under setting [1] is 3.66 µM [falling, partial curve]. The AC50 under setting [2] was 2.59 µM [falling, partial curve].

Take `O=C(Nc1nn(Cc2ccccc2F)cc1Br)c1cccs1`: the cell number change was -5.27%. Besides, the AC50 under setting [2] was 13 µM [rising, partial curve].

Turning to `COc1cccc(CNS(=O)(=O)c2cc3c(cc2C)NC(=O)CO3)c1`, the cell number change was -3.75%. Besides, under setting [2], the AC50 is 4.11 µM [falling, single point].

For the origin of these results see PubChem BioAssay AID2685 (National Center for Advancing Translational Sciences (NCATS), 2010).
